Common to all, as to assay: co-IP; COS-7 cells co-transfected; lysis in 50 mM Tris-HCl pH 7.4, 150 mM NaCl, 1 mM EDTA, 1% Triton X-100; IP with anti-FLAG and, reciprocally, with antibody against the fluorescent tag, overnight at 4°C, Protein A/G agarose; western blot
On the technique in general: In western blotting, separated proteins are transferred to a membrane and probed.

By UniProt entry, the sequences of proteins in these tests, tags left out.
UniProt Q91VH2: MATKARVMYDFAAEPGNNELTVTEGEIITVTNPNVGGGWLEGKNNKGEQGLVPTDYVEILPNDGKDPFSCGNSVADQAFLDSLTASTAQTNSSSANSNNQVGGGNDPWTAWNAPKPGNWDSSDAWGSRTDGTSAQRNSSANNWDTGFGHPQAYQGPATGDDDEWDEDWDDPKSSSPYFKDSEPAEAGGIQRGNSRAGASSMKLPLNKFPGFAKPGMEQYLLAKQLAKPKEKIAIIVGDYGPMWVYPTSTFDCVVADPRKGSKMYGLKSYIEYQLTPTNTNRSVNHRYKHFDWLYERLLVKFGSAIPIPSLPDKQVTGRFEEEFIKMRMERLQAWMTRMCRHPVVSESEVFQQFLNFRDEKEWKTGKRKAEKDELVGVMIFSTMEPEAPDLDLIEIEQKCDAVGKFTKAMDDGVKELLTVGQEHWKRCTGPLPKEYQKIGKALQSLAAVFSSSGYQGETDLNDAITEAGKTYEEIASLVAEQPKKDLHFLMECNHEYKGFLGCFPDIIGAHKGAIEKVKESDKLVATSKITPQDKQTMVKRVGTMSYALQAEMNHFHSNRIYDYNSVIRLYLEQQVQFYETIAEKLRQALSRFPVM
UniProt Q6PFY1: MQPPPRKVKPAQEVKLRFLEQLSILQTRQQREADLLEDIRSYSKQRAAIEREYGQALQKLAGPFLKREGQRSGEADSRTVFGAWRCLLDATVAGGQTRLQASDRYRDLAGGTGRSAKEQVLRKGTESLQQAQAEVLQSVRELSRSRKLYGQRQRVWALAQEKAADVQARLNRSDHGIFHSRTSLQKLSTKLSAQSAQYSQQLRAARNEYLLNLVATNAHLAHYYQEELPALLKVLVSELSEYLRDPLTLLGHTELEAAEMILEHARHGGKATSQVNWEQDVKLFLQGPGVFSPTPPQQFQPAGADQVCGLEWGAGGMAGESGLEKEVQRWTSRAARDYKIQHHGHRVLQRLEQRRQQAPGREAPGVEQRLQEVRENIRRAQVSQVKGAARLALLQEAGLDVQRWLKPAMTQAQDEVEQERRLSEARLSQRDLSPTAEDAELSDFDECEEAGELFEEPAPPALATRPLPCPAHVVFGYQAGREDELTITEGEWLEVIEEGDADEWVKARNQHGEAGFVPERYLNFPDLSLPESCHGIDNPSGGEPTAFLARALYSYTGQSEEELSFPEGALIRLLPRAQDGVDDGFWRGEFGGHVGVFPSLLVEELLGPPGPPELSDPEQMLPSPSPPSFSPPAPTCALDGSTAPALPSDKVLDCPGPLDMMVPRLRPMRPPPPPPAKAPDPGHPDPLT

The target in one experiment is mCherry–SNX9 (UniProt Q91VH2).
A further experiment concerns the target T1, Tomato–SNX18 (UniProt Q91ZR2).
T1 sequence: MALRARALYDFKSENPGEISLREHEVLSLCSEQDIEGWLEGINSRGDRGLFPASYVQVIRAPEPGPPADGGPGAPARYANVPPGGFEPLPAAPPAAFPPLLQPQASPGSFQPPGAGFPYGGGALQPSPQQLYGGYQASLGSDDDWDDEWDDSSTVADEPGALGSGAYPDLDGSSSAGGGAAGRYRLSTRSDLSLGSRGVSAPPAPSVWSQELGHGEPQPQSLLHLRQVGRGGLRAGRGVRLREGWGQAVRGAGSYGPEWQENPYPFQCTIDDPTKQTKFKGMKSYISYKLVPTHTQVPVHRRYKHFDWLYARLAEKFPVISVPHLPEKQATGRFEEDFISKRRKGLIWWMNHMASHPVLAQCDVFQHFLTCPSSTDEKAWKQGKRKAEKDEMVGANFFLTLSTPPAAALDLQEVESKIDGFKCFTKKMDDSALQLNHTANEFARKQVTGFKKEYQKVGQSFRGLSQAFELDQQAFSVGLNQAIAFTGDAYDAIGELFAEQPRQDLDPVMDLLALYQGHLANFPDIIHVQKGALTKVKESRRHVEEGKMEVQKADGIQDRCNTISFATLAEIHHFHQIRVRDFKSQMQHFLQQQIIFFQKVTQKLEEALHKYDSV

For a further experiment, the target named is T2, EGFP–SNX33 (mouse) (UniProt Q4VAA7).
T2 sequence: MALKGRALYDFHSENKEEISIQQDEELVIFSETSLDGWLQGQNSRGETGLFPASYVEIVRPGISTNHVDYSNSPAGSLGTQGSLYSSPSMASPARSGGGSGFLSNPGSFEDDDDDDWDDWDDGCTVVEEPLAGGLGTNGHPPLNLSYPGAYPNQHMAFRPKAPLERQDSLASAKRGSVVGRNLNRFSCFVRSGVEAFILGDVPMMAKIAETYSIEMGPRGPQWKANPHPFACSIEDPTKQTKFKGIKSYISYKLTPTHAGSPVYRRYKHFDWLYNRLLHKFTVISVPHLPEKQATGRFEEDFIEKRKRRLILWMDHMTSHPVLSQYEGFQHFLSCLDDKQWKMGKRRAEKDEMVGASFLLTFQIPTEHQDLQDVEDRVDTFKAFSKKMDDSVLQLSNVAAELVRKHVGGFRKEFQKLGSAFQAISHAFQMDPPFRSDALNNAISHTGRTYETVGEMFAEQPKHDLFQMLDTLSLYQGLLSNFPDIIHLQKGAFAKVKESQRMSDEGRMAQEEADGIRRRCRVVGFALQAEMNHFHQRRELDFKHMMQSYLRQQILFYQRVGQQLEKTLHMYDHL

For experiment [1], the target named is FLAG–NWK2 (expressed in COS-7 cells) (mouse) (UniProt Q6PFY1).

These are yes or no findings as the source states them, for the method shown. In cells and extracts the contact can be indirect. Some results given as binding are weak or reduced against the parent protein; the word gives no strength. For part of these data: Sequences can lack the tags named with a protein.

In the case of “FLAG–NWK2 (expressed in COS-7 cells) (from UniProt Q6PFY1 1-688)”, the binding entry with mCherry–SNX9, with Tomato–SNX18 and with EGFP–SNX33 (mouse) was “binds” throughout. As for “mCherry–SNX9 (from UniProt Q91VH2 1-595)”, the binding entry in experiment [1] was “binds”.

B1: EGFP–SNX33 (protein, UniProt Q4VAA7 1-574)
chain: MALKGRALYDFHSENKEEISIQQDEELVIFSETSLDGWLQGQNSRGETGLFPASYVEIVRPGISTNHVDYSNSPAGSLGTQGSLYSSPSMASPARSGGGSGFLSNPGSFEDDDDDDWDDWDDGCTVVEEPLAGGLGTNGHPPLNLSYPGAYPNQHMAFRPKAPLERQDSLASAKRGSVVGRNLNRFSCFVRSGVEAFILGDVPMMAKIAETYSIEMGPRGPQWKANPHPFACSIEDPTKQTKFKGIKSYISYKLTPTHAGSPVYRRYKHFDWLYNRLLHKFTVISVPHLPEKQATGRFEEDFIEKRKRRLILWMDHMTSHPVLSQYEGFQHFLSCLDDKQWKMGKRRAEKDEMVGASFLLTFQIPTEHQDLQDVEDRVDTFKAFSKKMDDSVLQLSNVAAELVRKHVGGFRKEFQKLGSAFQAISHAFQMDPPFRSDALNNAISHTGRTYETVGEMFAEQPKHDLFQMLDTLSLYQGLLSNFPDIIHLQKGAFAKVKESQRMSDEGRMAQEEADGIRRRCRVVGFALQAEMNHFHQRRELDFKHMMQSYLRQQILFYQRVGQQLEKTLHMYDHL
Take B1: the binding entry in experiment [1] was “binds”.

B2: Tomato–SNX18 (protein, UniProt Q91ZR2 1-614)
chain: MALRARALYDFKSENPGEISLREHEVLSLCSEQDIEGWLEGINSRGDRGLFPASYVQVIRAPEPGPPADGGPGAPARYANVPPGGFEPLPAAPPAAFPPLLQPQASPGSFQPPGAGFPYGGGALQPSPQQLYGGYQASLGSDDDWDDEWDDSSTVADEPGALGSGAYPDLDGSSSAGGGAAGRYRLSTRSDLSLGSRGVSAPPAPSVWSQELGHGEPQPQSLLHLRQVGRGGLRAGRGVRLREGWGQAVRGAGSYGPEWQENPYPFQCTIDDPTKQTKFKGMKSYISYKLVPTHTQVPVHRRYKHFDWLYARLAEKFPVISVPHLPEKQATGRFEEDFISKRRKGLIWWMNHMASHPVLAQCDVFQHFLTCPSSTDEKAWKQGKRKAEKDEMVGANFFLTLSTPPAAALDLQEVESKIDGFKCFTKKMDDSALQLNHTANEFARKQVTGFKKEYQKVGQSFRGLSQAFELDQQAFSVGLNQAIAFTGDAYDAIGELFAEQPRQDLDPVMDLLALYQGHLANFPDIIHVQKGALTKVKESRRHVEEGKMEVQKADGIQDRCNTISFATLAEIHHFHQIRVRDFKSQMQHFLQQQIIFFQKVTQKLEEALHKYDSV
With B2, in experiment [1], the binding result is reported as “binds”.
